From PubChem BioAssay AID493014 (National Center for Advancing Translational Sciences (NCATS), 2011) come the findings set out here.

The assay in a line: qHTS Assay to Find Inhibitors of Chronic Active B-Cell Receptor Signaling. The conditions noted are these: ABC-DLBCL IkBa-CBG/CBR reporter, luminescence ratio (green luciferase fused to IkBa over red control in TMD8 lymphoma cells), 4 h. The method in brief:
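Compounds up to 46 uM were incubated four hours with TMD8 cells whose green CBG68 luciferase is fused to IkappaBalpha; red CBR luminescence normalised the signal, and concentration-effect curves were fitted to fusion, red and ratio data.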

[1] abbreviates: measured here: CBR red luminescence, cell number.
[2] abbreviates: measured here: IkBa-CBG green luminescence.

Molecules are shown by their SMILES. The list shows a part of the results. Shown are side measurements of this screen, not its main read-out; they come without a call. Most of these compounds were active or inconclusive in the main read-out, so they are no random draw. The note in brackets gives the kind of curve behind each potency; many fits are weak.

By AC50 is commonly meant the concentration giving half of the maximal activity seen.

Take `CCOc1ccccc1CNC(=O)C1CCCN(c2nc3ccccc3o2)C1` (stereo not given): the AC50 under setting [1] was 14.1 µM [falling, partial curve, poor fit].
Regarding `CCCOc1ccc(Cl)cc1CNc1ccccc1`, the AC50 under setting [1] is 35.5 µM [rising, single point].
The same measure, in the same setting: as for `COc1ccc(NC(=O)CN(C)CC(=O)Nc2ccc(Cl)cc2[N+](=O)[O-])cc1`, the figure is 4.47 µM [rising, full curve, poor fit]; as for `CC(=O)NC(=S)Nc1ccc(NC(=O)COc2ccc(Cl)cc2)cc1`, 23.1 µM [falling, single point]; as for `Cc1oc2ccc(OCc3ccc(F)cc3)cc2c1C(=O)O`, 5.62 µM [rising, full curve, poor fit].
Turning to `O=C(NN(c1ccccc1)c1ccccc1)c1ccc([N+](=O)[O-])o1`, the AC50 under setting [1] is 14.1 µM [falling, partial curve].
The same measure, in the same setting: under `O=C(NCCc1ccccc1)C1CCN(S(=O)(=O)c2cccs2)CC1` stands 3.55 µM [rising, full curve, poor fit]; under `O=C(NNC(=O)c1csc(N2CCOCC2)n1)c1ccc(Cl)nc1`, 25.9 µM [falling, single point]; under `CSc1nc(=O)n2cccc(C)c2n1`, 29.1 µM [rising, single point].
On the same count and under the same terms, under `O=S(=O)(c1ccccc1)c1ncc(C(F)(F)F)cc1Cl` stands 5.62 µM [falling, full curve, poor fit]; under `CCCCCC(=O)Nc1ccc(C2C(=O)c3ccccc3C2=O)cc1`, 15.8 µM [rising, single point]; under `CC1CCN(CCOc2ccc(Cl)c(Cl)c2)CC1`, 29.1 µM [rising, single point].
Same read-out and setting: as for `O=C(Nc1c(C(=O)O)oc2ccc(Br)cc12)c1ccccc1`, the figure is 10 µM [falling, single point]; as for `Cc1nn(-c2ccc(C(F)(F)F)cn2)c(C)c1Oc1ccccc1O`, 29.1 µM [falling, single point]; as for `CCOC(=O)C(=O)/C(C#N)=C/Nc1ccc(Cl)cc1`, 4.61 µM [falling, partial curve, poor fit].
Take `CN(C)c1ccc(C(=O)OCC#CCSc2nnc(-c3cccc4ccccc34)o2)cc1`: the AC50 under setting [1] is 4.11 µM [rising, single point].
Still for that read-out and setting: as for `COC(=O)c1ccc(COc2cccc3c2CCN(Cc2ccccc2)C3=O)o1`, the figure is 14.6 µM [falling, single point]; as for `Cc1ccc(-n2cc(C(=O)O)c(=O)cc2C)c(C)c1`, 35.5 µM [rising, single point].
Take `CCOc1ccc(OCCC(=O)OCC(=O)Nc2cc(OCC)c(N3CCOCC3)cc2OCC)cc1`: the AC50 is 14.6 µM [falling, partial curve] under setting [1] and 9.2 µM [rising, partial curve, poor fit] under setting [2].
Regarding `CCOc1cccc(/C=N/NC(=S)Nc2ccccc2[N+](=O)[O-])c1O`, under setting [1], the AC50 was 2.51 µM [falling, single point].
`Cc1c(C(=O)OCC(C)C)[nH]c2c1C(=O)CC(c1ccco1)C2` (stereo not given): the AC50 under setting [1] was 2.31 µM [rising, full curve] and the AC50 under setting [2] is 2.59 µM [falling, partial curve, poor fit].
Take `Cc1cc2n(n1)CCCN2C(=O)Nc1ccc(Cl)cc1`: the AC50 under setting [1] was 5.62 µM [rising, partial curve, poor fit].
On the same count and under the same terms, as for `O=C(/C=C/c1c(Cl)cccc1Cl)N1CCOCC1`, the figure is 35.5 µM [rising, single point]; as for `Cc1nc2ccc(C(=O)N3CCCC(CO)(Cc4ccc(F)cc4F)C3)cc2nc1C` (stereo not given), 10 µM [falling, partial curve, poor fit]; as for `CN(CC(=O)Nc1ccc(F)cc1)C(=O)c1cccc(S(=O)(=O)N2CCN(c3ccc(F)cc3)CC2)c1`, 16.4 µM [falling, single point].
Still for that read-out and setting: under `COc1ccc(-n2cc(CNCCCn3ccnc3)c(-c3cccc(F)c3)n2)cc1` stands 12.6 µM [falling, partial curve, poor fit]; under `O=C(NN=Cc1c(O)ccc2ccccc12)c1ccc2c(c1)OCO2`, 3.66 µM [falling, full curve, poor fit]; under `O=C(COC(=O)c1ccc(O)cc1O)Nc1cc(-c2ccccc2)nn1-c1ccccc1`, 25.9 µM [falling, partial curve, poor fit].
The same measure, in the same setting: as for `O=C(Nc1ccc(Cl)cc1)N[C@@H]1c2c(ccc3ccccc23)OC[C@@H]1CO`, the figure is 5.62 µM [rising, single point]; as for `COc1ccc(OC)c(NC(=O)CC2(CC(=O)O)CCCC2)c1`, 20 µM [falling, partial curve, poor fit]; as for `CCn1c(N)c(C(=O)NC2CCCCC2)sc1=S`, 14.6 µM [falling, partial curve].
Take `COc1ccccc1N1CCN(S(=O)(=O)c2cc(C)sc2C)CC1`: the AC50 under setting [1] is 0.82 µM [rising, partial curve, poor fit].
For the compound `COC(=O)C1CN(C(=O)COc2ccc(Cl)c(C)c2)c2ccccc2O1` (stereo not given), under setting [1], the AC50 was 3.16 µM [falling, full curve].
Same read-out and setting: under `CC(=O)OCCc1c(C)nc2nc[nH]n2c1=O` stands 0.92 µM [falling, full curve, poor fit].
The same measure, in the same setting: as for `N#CCSc1nc(Nc2ccc3c(c2)OCO3)c2ccccc2n1`, the figure is 15.8 µM [falling, single point].
Still for that read-out and setting: under `O=c1oc2c(CN3CCOCC3)c(O)ccc2c2c1CCC2` stands 35.5 µM [rising, partial curve, poor fit]; under `COc1ccc(N(CC(O)Cn2c3ccccc3c3ccccc32)S(=O)(=O)c2ccccc2)cc1` (stereo not given), 7.08 µM [falling, partial curve, poor fit].
Consider `C[C@H](CO)N1C[C@H](C)[C@@H](CN(C)CC2CCCCC2)Oc2c(NC(=O)Cc3ccccc3)cccc2C1=O`, for which, under setting [1], the AC50 was 25.9 µM [falling, single point].
Same read-out and setting: under `O=C(CSc1nc2ncccc2[nH]1)Nc1ccc2c(c1)OCO2` stands 35.5 µM [falling, single point]; under `CCOc1cc(/C=C/C(=O)OCC(=O)NC2CCS(=O)(=O)C2)ccc1OCc1ccccc1` (stereo not given), 12.6 µM [rising, partial curve, poor fit].
As for `Cc1c(C(=O)N2CCOCC2)c(S(=O)(=O)Nc2ccccc2)c(C)n1C`, the AC50 under setting [1] is 0.794 µM [falling, partial curve, poor fit].
With `CNC(=O)CCCc1nc(-c2ccccc2Cl)no1`, the AC50 under setting [1] was 0.184 µM [rising, full curve, poor fit].
On the same count and under the same terms, under `COc1cc(C=C2C(=O)c3ccccc3C2=O)cc(OC)c1OC` stands 5.62 µM [rising, single point]; under `CC(=O)C1CCC2C3CCC4=CC(=O)CC[C@]4(C)[C@@]3(F)C(O)C[C@]12C` (stereo not given in full), 0.355 µM [rising, full curve, poor fit].
Still for that read-out and setting: as for `CCCCn1nc(C(=O)NCC2COc3ccccc3O2)c2ccccc2c1=O` (stereo not given), the figure is 18.4 µM [falling, single point].
Same read-out and setting: as for `O=c1cc2c(nn1Cc1cccc(Cl)c1)-c1ccccc1CC2`, the figure is 14.6 µM [falling, single point].
For `COc1ccccc1/C=C/C(=O)OCC(=O)c1c[nH]c2ccccc12`, the AC50 under setting [1] was 20.6 µM [falling, single point].
The same measure, in the same setting: under `CCCOc1cccc(CN2CCCCC2c2cccnc2)c1` (stereo not given) stands 2.91 µM [rising, partial curve, poor fit].
Same read-out and setting: as for `CN(CC/C=C1/c2ccccc2CSc2ccccc21)CCCO`, the figure is 7.31 µM [falling, partial curve, poor fit]; as for `Cc1ccsc1C(=O)NNC(=O)Nc1ccc(Cl)c(Cl)c1`, 20 µM [falling, single point].
The same measure, in the same setting: under `Cc1c(C(=O)NCc2ccccc2)oc2ccc(S(=O)(=O)N3CCCC3)cc12` stands 3.55 µM [rising, full curve, poor fit]; under `O=[N+]([O-])c1ccc2c(c1)C(N1CCOCC1)/C(=C/COc1ccc(F)cc1)O2` (stereo not given), 29.1 µM [falling, single point].
Consider `O=C(COC(=O)c1ccccc1NC(=O)c1ccccc1)c1ccc([N+](=O)[O-])cc1`, for which the AC50 under setting [1] was 2.91 µM [falling, full curve].
On to `Brc1c(OCCOCCn2cncn2)ccc2ccccc12`, for which the AC50 under setting [1] is 1.84 µM [rising, partial curve, poor fit].
The same measure, in the same setting: as for `COc1ccc(-c2cc(C(=O)N(C)CC(=O)Nc3ccccc3Br)c3ccccc3n2)cc1OC`, the figure is 6.51 µM [rising, single point].
Still for that read-out and setting: under `CC(=O)Nc1ccc(NC(=O)CSc2ccc(C)cc2)cc1` stands 3.26 µM [falling, single point].
Same read-out and setting: as for `O=C1/C(=C/c2ccc(Br)cc2)Oc2cc(O)ccc21`, the figure is 0.501 µM [rising, full curve, poor fit]; as for `COc1ccc2[nH]c(C(=O)N/N=C/c3cc(OC)c(OC)c(OC)c3)cc2c1`, 10 µM [falling, partial curve]; as for `CCCOc1cccc(C2/C(=C(/O)c3ccc4c(c3)CC(C)O4)C(=O)C(=O)N2CCN2CCOCC2)c1` (stereo not given), 0.708 µM [rising, full curve].
For `Cn1c2ccccc2c(=O)c2c(=O)n(Cc3ccco3)c(-c3ccc(C(C)(C)C)cc3)nc21`, the AC50 under setting [1] was 8.91 µM [falling, partial curve, poor fit].
Still for that read-out and setting: under `CCO[C@@H]1OC(C(=O)N2CCN(Cc3ccc4c(c3)OCO4)CC2)=C[C@H](c2csc3ccccc23)[C@H]1CCCO` stands 6.31 µM [rising, single point]; under `CC(C)(C)n1ncc2c(=O)n(CC(=O)N3CCc4ccccc43)cnc21`, 12.6 µM [falling, partial curve, poor fit].
The same measure, in the same setting: under `C/C(=N\NC(=O)CSc1nc2ccccc2s1)c1ccco1` stands 20.6 µM [falling, single point].
